# Laboratory results: ChEMBL document CHEMBL3804824, “5-((3-Amidobenzyl)oxy)nicotinamides as Sirtuin 2 Inhibitors” (J Med Chem, 2016)
# The chains behind the UniProt entries cited, without tags or fusion partners. Where a name states a change or a piece, a line headed by the entry shows the natural chain unless it says otherwise.
# UniProt Q9NXA8: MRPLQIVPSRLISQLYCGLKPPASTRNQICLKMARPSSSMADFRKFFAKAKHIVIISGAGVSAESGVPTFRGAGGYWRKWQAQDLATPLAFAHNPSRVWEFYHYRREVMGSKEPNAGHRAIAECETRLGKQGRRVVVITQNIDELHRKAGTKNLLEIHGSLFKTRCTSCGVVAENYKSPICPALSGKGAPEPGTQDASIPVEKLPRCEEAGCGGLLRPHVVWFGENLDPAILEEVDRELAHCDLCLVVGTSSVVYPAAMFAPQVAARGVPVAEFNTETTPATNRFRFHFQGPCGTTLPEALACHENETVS
# Columns and labels:
# in vitro [1] = settings: human, plasma
# in vitro [2] = settings: human, plasma; remark: listed apart in the source
# in vitro [3] = settings: dog, MDCK
# in vitro [4] = settings: mouse, plasma
# [5] = biological target: NAD-dependent protein deacylase sirtuin-5, mitochondrial (Homo sapiens, UniProt Q9NXA8)
# in vitro [6] = settings: dog, MDCK; remark: listed apart in the source
# in vitro [7] = settings: dog, MDCK; remark: listed apart in the source
# in vitro [8] = settings: human, microsomes
# in vitro [9] = settings: mouse, microsomes
# in vitro [10] = settings: mouse, plasma; remark: listed apart in the source
# [11] = biological target: T1, NAD-dependent protein deacetylase sirtuin-3, mitochondrial (Homo sapiens, UniProt Q9NTG7); assay: biochemical
# T1 sequence (Q9NTG7 whole entry): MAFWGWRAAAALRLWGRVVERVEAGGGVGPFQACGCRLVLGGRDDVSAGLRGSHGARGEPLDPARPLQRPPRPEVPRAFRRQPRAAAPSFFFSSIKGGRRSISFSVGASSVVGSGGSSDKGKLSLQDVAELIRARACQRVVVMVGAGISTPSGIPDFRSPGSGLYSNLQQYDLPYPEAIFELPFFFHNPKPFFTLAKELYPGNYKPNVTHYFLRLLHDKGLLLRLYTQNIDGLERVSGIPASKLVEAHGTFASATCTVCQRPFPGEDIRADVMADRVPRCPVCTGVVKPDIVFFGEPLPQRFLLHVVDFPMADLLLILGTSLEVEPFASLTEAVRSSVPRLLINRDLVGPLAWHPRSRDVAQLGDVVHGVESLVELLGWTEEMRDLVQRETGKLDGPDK
Structure (SMILES),remaining at 6 h (in vitro [1]) [%],remaining at 24 h (in vitro [2]) [%],"recovery at 3 h, 25 µM (in vitro [3]) [%]",remaining at 6 h (in vitro [4]) [%],IC50 [5] [µM],"Papp A→B at 3 h, 25 µM (in vitro [6]) [×10⁻⁶ cm/s]","Papp B→A at 3 h, 25 µM (in vitro [7]) [×10⁻⁶ cm/s]",half-life at 1 µM (in vitro [8]) [min],half-life at 1 µM (in vitro [9]) [min],remaining at 24 h (in vitro [10]) [%],Ki [11] [µM]
NC(=O)c1cncc(OCc2cccc(NC(=O)c3ccc(N4CCOCC4)cc3)c2)c1,98,98,> 90,74,> 200,5.7,6.8,55,14,35,
NC(=O)c1cncc(OCc2cccc(NC(=O)c3ccncc3)c2)c1,97,99,> 90,63,> 200,16,12,408,64,7.9,7.2
